These are yes or no findings as the source states them, for the method shown. In cells and extracts the contact can be indirect. Some binding calls cover weakened binding; strength is not graded here.
T1: TBK1 kinase-dead (K38A), transfected (human) (UniProt Q9UHD2)
T1 sequence: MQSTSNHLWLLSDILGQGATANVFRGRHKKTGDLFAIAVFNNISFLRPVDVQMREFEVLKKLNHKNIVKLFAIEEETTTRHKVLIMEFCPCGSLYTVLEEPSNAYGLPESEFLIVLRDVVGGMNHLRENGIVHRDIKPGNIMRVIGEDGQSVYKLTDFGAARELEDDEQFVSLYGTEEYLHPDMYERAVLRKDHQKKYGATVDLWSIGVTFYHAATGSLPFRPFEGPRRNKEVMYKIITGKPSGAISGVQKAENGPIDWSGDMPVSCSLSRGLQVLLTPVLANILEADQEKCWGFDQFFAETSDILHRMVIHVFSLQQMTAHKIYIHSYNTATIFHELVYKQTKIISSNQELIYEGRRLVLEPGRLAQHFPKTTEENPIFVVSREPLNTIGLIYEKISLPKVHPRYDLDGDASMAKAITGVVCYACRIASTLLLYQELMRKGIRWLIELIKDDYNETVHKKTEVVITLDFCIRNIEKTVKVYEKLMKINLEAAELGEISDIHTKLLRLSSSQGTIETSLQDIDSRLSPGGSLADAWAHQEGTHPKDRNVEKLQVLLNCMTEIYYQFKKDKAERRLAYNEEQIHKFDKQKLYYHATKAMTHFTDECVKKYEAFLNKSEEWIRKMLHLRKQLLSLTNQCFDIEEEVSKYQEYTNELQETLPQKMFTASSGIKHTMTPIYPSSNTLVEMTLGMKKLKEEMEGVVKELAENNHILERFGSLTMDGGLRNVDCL

T2: TBK1, wild-type, transfected (human) (UniProt Q9UHD2)
T2 sequence: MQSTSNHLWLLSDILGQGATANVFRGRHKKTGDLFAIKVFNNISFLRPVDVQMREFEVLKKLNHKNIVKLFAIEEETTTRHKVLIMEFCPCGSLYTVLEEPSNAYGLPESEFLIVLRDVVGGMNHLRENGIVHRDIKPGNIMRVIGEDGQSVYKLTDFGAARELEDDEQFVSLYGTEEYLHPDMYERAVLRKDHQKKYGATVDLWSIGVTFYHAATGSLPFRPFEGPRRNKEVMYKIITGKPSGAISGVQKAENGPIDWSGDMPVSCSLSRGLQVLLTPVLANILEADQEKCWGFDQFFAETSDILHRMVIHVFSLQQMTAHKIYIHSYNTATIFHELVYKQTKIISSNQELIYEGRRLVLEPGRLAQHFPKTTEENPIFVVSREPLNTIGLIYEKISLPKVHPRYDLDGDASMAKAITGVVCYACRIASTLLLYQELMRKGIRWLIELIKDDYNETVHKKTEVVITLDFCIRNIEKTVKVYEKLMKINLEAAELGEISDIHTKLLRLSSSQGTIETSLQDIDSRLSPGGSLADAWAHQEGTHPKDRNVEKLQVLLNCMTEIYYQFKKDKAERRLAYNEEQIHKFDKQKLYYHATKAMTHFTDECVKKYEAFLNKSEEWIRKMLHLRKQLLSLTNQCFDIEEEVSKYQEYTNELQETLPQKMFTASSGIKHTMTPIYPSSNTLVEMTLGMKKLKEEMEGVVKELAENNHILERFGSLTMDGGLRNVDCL

T3: TBK1 truncation a.a. 1-382 (N-terminal kinase domain and ULD) (human) (UniProt Q9UHD2)
T3 sequence: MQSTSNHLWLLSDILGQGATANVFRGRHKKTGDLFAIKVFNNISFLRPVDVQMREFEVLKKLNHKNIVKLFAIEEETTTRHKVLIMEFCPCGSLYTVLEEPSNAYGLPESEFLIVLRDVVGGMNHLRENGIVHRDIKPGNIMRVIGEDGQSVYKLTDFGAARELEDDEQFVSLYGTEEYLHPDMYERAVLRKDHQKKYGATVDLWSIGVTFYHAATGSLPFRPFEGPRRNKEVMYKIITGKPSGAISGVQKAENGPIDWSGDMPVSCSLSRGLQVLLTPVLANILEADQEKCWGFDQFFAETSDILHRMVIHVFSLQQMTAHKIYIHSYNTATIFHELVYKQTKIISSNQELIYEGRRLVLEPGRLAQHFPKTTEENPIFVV


How the values were obtained:
Assay in all cases: co-IP; transfected proteins; cell lysates in MLB (20 mM Tris-HCl, 200 mM NaCl, 1% NP-40, pH 7.5), immunoprecipitation with anti-Flag (M2), anti-Myc or anti-HA, 3 to 4 washes, immunoblot; in some panels with co-expressed TBK1 or Zyxin
[1] = target: T1, TBK1 kinase-dead (K38A), transfected (human)
[2] = target: T2, TBK1, wild-type, transfected (human)
[3] = target: T3, TBK1 truncation a.a. 1-382 (N-terminal kinase domain and ULD) (human)

| binding [1] | binding [2] | binding [3] | Binder |
| --- | --- | --- | --- |
| binds | binds | binds | Zyxin, wild type, expressed from pRK5 (protein, UniProt Q15942 1-572) MAAPRPSPAISVSVSAPAFYAPQKKFGPVVAPKPKVNPFRPGDSEPPPAPGAQRAQMGRVGEIPPPPPEDFPLPPPPLAGDGDDAEGALGGAFPPPPPPIEESFPPAPLEEEIFPSPPPPPEEEGGPEAPIPPPPQPREKVSSIDLEIDSLSSLLDDMTKNDPFKARVSSGYVPPPVATPFSSKSSTKPAAGGTAPLPPWKSPSSSQPLPQVPAPAQSQTQFHVQPQPQPKPQVQLHVQSQTQPVSLANTQPRGPPASSPAPAPKFSPVTPKFTPVASKFSPGAPGGSGSQPNQKLGHPEALSAGTGSPQPPSFTYAQQREKPRVQEKQHPVPPPAQNQNQVRSPGAPGPLTLKEVEELEQLTQQLMQDMEHPQRQNVAVNELCGRCHQPLARAQPAVRALGQLFHIACFTCHQCAQQLQGQQFYSLEGAPYCEGCYTDTLEKCNTCGEPITDRMLRATGKAYHPHCFTCVVCARPLEGTSFIVDQANRPHCVPDYHKQYAPRCSVCSEPIMPEPGRDETVRVVALDKNFHMKCYKCEDCGKPLSIEADDNGCFPLDGHVLCRKCHTARAQT |
| – | binds | – | LIM domain of Zyxin (a.a. 380-572) (domain or fragment, UniProt Q15942 380-572) VNELCGRCHQPLARAQPAVRALGQLFHIACFTCHQCAQQLQGQQFYSLEGAPYCEGCYTDTLEKCNTCGEPITDRMLRATGKAYHPHCFTCVVCARPLEGTSFIVDQANRPHCVPDYHKQYAPRCSVCSEPIMPEPGRDETVRVVALDKNFHMKCYKCEDCGKPLSIEADDNGCFPLDGHVLCRKCHTARAQT |
